In patent publication US20250171430A1, “PYRAZOLYL COMPOUNDS AS KV7 CHANNEL ACTIVATORS” (Biohaven Therapeutics Ltd., priority 2022, published 2025):
At least one compound was matched to its structure with a doubt left.

Target: T1, Kv7.2/7.3 (Homo sapiens, UniProt O43525+O43526)
T1 construct: Kv7.2 tetracycline-induced, Kv7.3 constitutive
Test: Kv7.2/7.3 Activation Assay (Thallium Flux Assay)
Format: cell-based
Conditions: hKV7.2/7.3 cell line; test compound at single concentration of 10 μM; fluorescence at 90 sec normalized to positive control (retigabine, 30 μM)
Description: The Thallium Flux Assay is used as a surrogate indicator of potassium channel activity.
The experimental protocol was adapted from the FluxOR™ II Green Potassium Ion Channel Assay User Guide (Pub. No. MAN0016084, Invitrogen). Conditions were optimized for the Kv7.2/7.3 cell line.
Cell Line: The hKV7.2/7.3 cell line was obtained from Chantest (cat. #CT6147).
Cell Culture: Kv7.2/7.3 cells were maintained in a media containing DMEM/F12; 50/50 (Fisher 11-330), 10% Fetal Bovine Serum (FBS) (Fisher 26-140), 100 units/mL Penicillin-Streptomycin (Fisher 15-140), 0.005 mg/ml Blasticidin (InvivoGen ant-bl-1), 0.5 mg/mL Geneticin (InvivoGen ant-gn-5), and 0.1 mg/mL Zeocin (Fisher R25001). One day prior to experimentation, cells were plated in 96 well clear bottom plates (Corning cat. #353219) in a media without Blasticidin, Geneticin, or Zeocin. […]
Measurement and data analysis: Thallium-flux-mediated changes in intracellular fluorescence were made using a plate reader (Enspire, Perkin Elmer) set with an excitation wavelength of 475 nm and an emission wavelength of 530 nm. […] Fluorescence values at 90 sec were normalized to the positive control (retigabine, 30 μM) and test compound activities were assigned categories according to the formula: “No Activity <0.15, “+” Moderate Activity 0.15-0.7, and “++” High Activity >0.7.

Cn1nc(NC(=O)CC(C)(O)c2ccccc2F)c(C2CCC2)c1-c1ccc(F)cc1 (centres unmarked) [Compound 27, N-(4-cyclobutyl-5-(4-fluorophenyl)-1-methyl-1H-pyrazol-3-yl)-3-(2-fluorophenyl)-3-hydroxybutanamide]
Kv7.2/7.3 Activity: ++ (“++” High Activity ≥ 0.7)

Cn1nc(NC(=O)C(C)(C)C(F)F)c(C2CCC2)c1-c1ccc(F)cc1 [Compound 145, N-(4-cyclobutyl-5-(4-fluorophenyl)-1-methyl-1H-pyrazol-3-yl)-3,3-difluoro-2,2-dimethylpropanamide]
Kv7.2/7.3 Activity: ++ (“++” High Activity ≥ 0.7)
